Experimental findings from patent US20160137744A1 (ONCOMED PHARMACEUTICALS, published 2016) are described below.

Chains of the proteins cited; added tags and fusions are not shown. Lines headed by an entry give the natural chain unless they say otherwise; changes in a name come on top.
UniProt P08581: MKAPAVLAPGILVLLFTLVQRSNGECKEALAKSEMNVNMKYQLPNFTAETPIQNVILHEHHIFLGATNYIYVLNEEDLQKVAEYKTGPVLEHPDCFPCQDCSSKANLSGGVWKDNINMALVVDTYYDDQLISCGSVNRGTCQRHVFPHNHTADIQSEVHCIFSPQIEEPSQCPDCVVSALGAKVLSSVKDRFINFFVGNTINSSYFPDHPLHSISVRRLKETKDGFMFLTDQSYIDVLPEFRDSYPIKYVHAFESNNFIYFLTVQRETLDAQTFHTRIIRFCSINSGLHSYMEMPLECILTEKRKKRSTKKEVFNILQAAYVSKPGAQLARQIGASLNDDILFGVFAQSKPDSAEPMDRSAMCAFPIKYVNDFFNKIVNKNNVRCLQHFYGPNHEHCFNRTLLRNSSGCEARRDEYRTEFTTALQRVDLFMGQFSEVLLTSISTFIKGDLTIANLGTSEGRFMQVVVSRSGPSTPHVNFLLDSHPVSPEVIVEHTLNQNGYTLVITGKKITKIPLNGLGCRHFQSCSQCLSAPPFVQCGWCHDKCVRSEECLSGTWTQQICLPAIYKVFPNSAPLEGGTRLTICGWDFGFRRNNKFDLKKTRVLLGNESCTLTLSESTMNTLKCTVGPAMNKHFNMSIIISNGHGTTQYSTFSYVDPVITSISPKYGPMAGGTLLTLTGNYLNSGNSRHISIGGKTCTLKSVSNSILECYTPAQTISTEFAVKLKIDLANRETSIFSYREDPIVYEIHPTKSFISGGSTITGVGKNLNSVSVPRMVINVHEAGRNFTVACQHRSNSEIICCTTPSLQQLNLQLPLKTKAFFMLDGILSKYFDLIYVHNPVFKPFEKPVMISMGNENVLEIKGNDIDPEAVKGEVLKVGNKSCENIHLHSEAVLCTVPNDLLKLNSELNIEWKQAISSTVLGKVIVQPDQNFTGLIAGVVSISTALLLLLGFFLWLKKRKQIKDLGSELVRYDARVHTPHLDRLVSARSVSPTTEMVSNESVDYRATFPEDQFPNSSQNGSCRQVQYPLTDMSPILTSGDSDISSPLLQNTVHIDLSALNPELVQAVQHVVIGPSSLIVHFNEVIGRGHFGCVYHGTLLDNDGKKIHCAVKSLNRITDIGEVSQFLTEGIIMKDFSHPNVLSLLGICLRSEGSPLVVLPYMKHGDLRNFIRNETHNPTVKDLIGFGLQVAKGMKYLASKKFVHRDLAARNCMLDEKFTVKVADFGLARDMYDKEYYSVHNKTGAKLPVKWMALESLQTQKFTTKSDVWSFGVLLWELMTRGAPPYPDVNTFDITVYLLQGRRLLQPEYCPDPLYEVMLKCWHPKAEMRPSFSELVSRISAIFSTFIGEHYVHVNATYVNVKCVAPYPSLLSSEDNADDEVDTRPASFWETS

These are yes or no findings as the source states them, for the method shown. Some binding calls cover weakened binding; strength is not graded here. Tags and fused reporters may be left off the sequences shown.

For the assay, the target named is human MET (soluble analyte in Biacore) (human, UniProt P08581 25-932). As to the kind of experiment: SPR (Biacore 2000). (Surface plasmon resonance follows binding to a sensor surface in real time, without labels.)

B1: anti-MET/FZD8-Fc bispecific agent 315B6 (bispecific antibody, human IgG2, kappa)
heavy: QVQLQESGPGLVKPSETLSLTCTVTGTTITASYAWSWIRQPPGKGLEWMGYISYSGGTDYNPSLKSRITISRDTFKNQFSLKLSSVTAADTATYYCARKGAYWGQGTLVTVSSASTKGPSVFPLAPCSRSTSESTAALGCLVKDYFPEPVTVSWNSGALTSGVHTFPAVLQSSGLYSLSSVVTVPSSNFGTQTYTCNVDHKPSNTKVDKTVERKCCVECPPCPAPPVAGPSVFLFPPKPKDTLMISRTPEVTCVVVDVSHEDPEVQFNWYVDGVEVHNAKTKPREEQFNSTFRVVSVLTVVHQDWLNGKEYKCKVSNKGLPAPIEKTISKTKGQPREPQVYTLPPSREKMTKNQVSLTCLVKGFYPSDIAVEWESNGQPENNYKTTPPMLKSDGSFFLYSKLTVDKSRWQQGNVFSCSVMHEALHNHYTQKSLSLSPGK
light: DIVLTQSPATLSASPGEKVTLTCSASSSVSSSYLYWYQQKPGQAPKLLIYSTSNLASGVPARFSGSGSGTSYSLTISSLEPEDFATYYCHQWSSYPYTFGGGTKLEIKRTVAAPSVFIFPPSDEQLKSGTASVVCLLNNFYPREAKVQWKVDNALQSGNSQESVTEQDSKDSTYSLSSTLTLSKADYEKHKVYACEVTHQGLSSPVTKSFNRGEC
chain: ASAKELACQEITVPLCKGIGYNYTYMPNQFNHDTQDEAGLEVHQFWPLVEIQCSPDLKFFLCSMYTPICLEDYKKPLPPCRSVCERAKAGCAPLMRQYGFAWPDRMRCDRLPEQGNPDTLCMDYNRTDLTTTKVDKTVERKSCVECPPCPAPPVAGPSVFLFPPKPKDTLMISRTPEVTCVVVDVSHEDPEVQFNWYVDGVEVHNAKTKPREEQFNSTFRVVSVLTVVHQDWLNGKEYKCKVSNKGLPAPIEKTISKTKGQPREPQVYTLPPSREEMTKNQVSLTCLVEGFYPSDIAVEWESNGQPENNYKTTPPMLDSDGSFFLYSELTVDKSRWQQGNVFSCSVMHEALHNHYTQKSLSLSPGK
notes: Heterodimer of a monovalent 73R009 arm (heavy + light) and a FZD8 Fri-Fc fusion arm; plasmids ATCC PTA-13609, PTA-13610, PTA-13611; also called bispecific anti-MET/FZD8-Fc agent
With B1, the binding entry was “binds”.
